These are yes or no findings as the source states them, for the method shown. Some results given as binding are weak or reduced against the parent protein; the word gives no strength.
What was measured:
[1] = target: mouse CCTε subunit (mouse) (UniProt P80316); assay: superimposable bands, 6% non-denaturing PAGE Western blot of mouse testis sucrose fractions 13 and 14, subunit-specific antibodies
[2] = target: T1, mouse CCTβ subunit (mouse) (UniProt P80314); assay: as above
T1 sequence (looked up): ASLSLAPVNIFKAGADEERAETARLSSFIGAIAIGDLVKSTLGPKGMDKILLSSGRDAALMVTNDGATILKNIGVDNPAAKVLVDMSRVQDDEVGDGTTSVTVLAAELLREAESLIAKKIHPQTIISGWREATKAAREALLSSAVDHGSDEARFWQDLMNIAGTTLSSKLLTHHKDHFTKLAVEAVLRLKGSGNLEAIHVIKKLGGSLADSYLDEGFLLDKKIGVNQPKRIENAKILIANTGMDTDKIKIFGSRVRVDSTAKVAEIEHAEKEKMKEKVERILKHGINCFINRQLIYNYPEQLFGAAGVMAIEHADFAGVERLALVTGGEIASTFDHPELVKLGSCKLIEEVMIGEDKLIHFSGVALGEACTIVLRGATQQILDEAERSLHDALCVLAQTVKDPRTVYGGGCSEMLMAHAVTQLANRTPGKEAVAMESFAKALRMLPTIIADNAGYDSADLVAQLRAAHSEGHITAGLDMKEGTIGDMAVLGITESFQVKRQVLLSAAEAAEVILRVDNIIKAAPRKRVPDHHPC

Chains of the proteins cited; added tags and fusions are not shown. Residues count along the entry.
UniProt P80316, residues 2-541: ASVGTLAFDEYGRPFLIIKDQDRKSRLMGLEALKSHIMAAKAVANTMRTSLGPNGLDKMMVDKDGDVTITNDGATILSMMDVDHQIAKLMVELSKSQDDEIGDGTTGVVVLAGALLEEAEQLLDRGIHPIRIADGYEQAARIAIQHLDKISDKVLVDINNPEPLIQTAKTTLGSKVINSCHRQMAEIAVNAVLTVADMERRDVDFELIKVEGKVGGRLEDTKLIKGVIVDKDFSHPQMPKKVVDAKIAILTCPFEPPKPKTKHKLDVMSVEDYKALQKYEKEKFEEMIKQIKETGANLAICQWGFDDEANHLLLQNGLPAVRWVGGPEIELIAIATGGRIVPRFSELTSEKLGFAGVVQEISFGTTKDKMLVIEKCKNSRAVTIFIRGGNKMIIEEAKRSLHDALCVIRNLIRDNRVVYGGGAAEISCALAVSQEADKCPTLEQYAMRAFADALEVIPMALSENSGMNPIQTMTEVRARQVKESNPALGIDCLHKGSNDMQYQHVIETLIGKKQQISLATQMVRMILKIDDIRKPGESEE
UniProt P80317, residues 2-531: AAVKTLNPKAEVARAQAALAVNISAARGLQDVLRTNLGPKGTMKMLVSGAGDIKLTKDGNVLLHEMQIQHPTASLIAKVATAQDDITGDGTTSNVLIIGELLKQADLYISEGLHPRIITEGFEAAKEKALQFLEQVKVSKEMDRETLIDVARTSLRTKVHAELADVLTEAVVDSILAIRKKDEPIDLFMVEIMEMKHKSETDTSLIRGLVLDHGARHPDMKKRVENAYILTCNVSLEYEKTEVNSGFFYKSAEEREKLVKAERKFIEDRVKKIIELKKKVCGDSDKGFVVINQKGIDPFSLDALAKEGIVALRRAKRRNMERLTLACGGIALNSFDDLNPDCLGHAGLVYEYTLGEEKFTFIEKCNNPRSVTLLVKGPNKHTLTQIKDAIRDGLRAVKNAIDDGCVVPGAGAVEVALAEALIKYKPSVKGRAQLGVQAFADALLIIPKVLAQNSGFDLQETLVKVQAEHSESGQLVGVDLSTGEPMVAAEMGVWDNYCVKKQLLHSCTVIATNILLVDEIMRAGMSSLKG

binding [1]: binds
binding [2]: binds
Substance: mouse CCTζ subunit (from UniProt P80317 2-531)
